# Test results reported in PubChem BioAssay AID1347076 (National Center for Advancing Translational Sciences (NCATS), 2019).
# About 13,000 (3.2%) of roughly 400,000 compounds were called active. The inconclusive results got no clear call from the source; some entries with a clear call stand among them for comparison. Calls follow the shape of the dose curve; as a rule, active = well fitted cell-killing curve with a large enough effect; inconclusive = small, poorly fitted or top-dose-only effect, or effect the other way; inactive = flat fitted curve, though single readings scatter. Where the call is inconclusive, the potency comes from a doubtful curve fit.
# Assay: qHTS assay for MDR1-selective chemotherapeutics: Primary screen using the drug-selected MDR subline cells KB-V1; also: nearly all actives have a fitted effect of over 60% in size
# Settings: KB-V1 MDR cells viability, CellTiter-Glo, 72 h; series mostly up to 46.1 µM
# In short: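 Drug-selected KB-V1 cells, grown in DMEM lacking phenol red with 10% FBS, receive compound titrations; after three days at 37 degrees C, surviving cell ATP is quantified by CellTiter-Glo luminescence and responses normalized and curve-fitted.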
# Potency is read from the fitted curve at half-maximal effect.
row,Compound,Potency
1,Cc1ccc(NC(=O)Nc2cccs2)nc1,inactive
2,COc1c(C(=O)N2CCCC2)ccc2ccccc12,"inconclusive: 29.1 µM [cytotoxic, single point]"
3,CCOc1ccc2nc(NC(=O)CSc3ccccc3)sc2c1,"inconclusive: 20.6 µM [cytotoxic, single point]"
4,Cn1c(=O)c2c(-c3ccccc3Br)n(C(C)(C)C)cc2n(C)c1=O,inactive
5,Cc1cnc2c(c1SCC(=O)N(C)c1ccccc1)c(=O)n(C)c(=O)n2C,inactive
6,Cc1ccc(Cl)cc1NS(=O)(=O)c1cn(C)nc1C,"inconclusive: 20.6 µM [rising, single point]"
7,CCCCCCn1cc(CN2CC(N3CCCCC3)CS2(=O)=O)nn1 (stereo unspecified),inactive
8,Cc1cc(C)c(S(=O)(=O)NCC(c2ccco2)N2CCc3ccccc3C2)c(C)c1 (stereo unspecified),"inconclusive: 10.3 µM [cytotoxic, partial curve, poor fit]"
9,CC(C)(C)c1ccc(-c2nc(-c3ccncc3)no2)cc1,active: 16.4 µM
10,Cc1nc(NC(=O)COC(=O)c2ccc(CO)cc2)c(Cl)cc1Cl,inactive
11,COCCCNc1ccc([N+](=O)[O-])cc1C(=O)Nc1cccc(C)n1,"inconclusive: 18.4 µM [cytotoxic, partial curve, poor fit]"
12,Cc1ccc(C(=O)Nc2ccc(Cc3ccncc3)cc2)cc1[N+](=O)[O-],active: 5.8 µM
13,Cn1c(N)c(C(=O)COC(=O)c2cc(S(=O)(=O)N3CCCCC3)ccc2Cl)c(=O)n(C)c1=O,"inconclusive: 13 µM [cytotoxic, partial curve]"
14,CCN(CC(=O)Nc1ccc(OC)cc1)CC(=O)Nc1cccc(C#N)c1,"inconclusive: 7.31 µM [rising, partial curve]"
15,CC(=O)C1=C(C)NC(SCC(N)=O)=C(C#N)C1c1cccnc1 (stereo unspecified),inactive
16,CC(=O)c1ccc(N2CCN(C(=S)NCc3ccco3)CC2)cc1,inactive
17,CCN1CCN(c2ccc(S(=O)(=O)N3CCCCC3)cc2NC(=O)c2ccc(F)cc2)CC1,inactive
18,CCC(C)(C)NC(=O)c1cc(S(=O)(=O)N2CCc3ccccc32)cn1C,"inconclusive: 16.4 µM [cytotoxic, partial curve, poor fit]"
19,CCCCn1c(=O)[nH]c(=O)c2c1nc(COc1ccc(C#N)cc1)n2CCC,"inconclusive: 7.31 µM [cytotoxic, partial curve]"
20,COc1ccc(F)cc1S(=O)(=O)NCC(c1ccc2c(c1)OCO2)N1CCN(C)CC1 (stereo unspecified),inactive
21,Nc1sc(-c2ccccc2)n[n+]1Cc1cccc2cccnc12,"inconclusive: 29.1 µM [cytotoxic, single point]"
22,Cc1cc(C(=O)CS(=O)(=O)c2ccc(F)cc2)cc(C)c1O,inactive
23,COc1ccc2c(c1)/C(=C/c1cc(OC)c(OC)c(OC)c1)C(=O)N2,"inconclusive: 1.03 µM [cytotoxic, full curve, poor fit]"
24,CN(Cc1ccc(Cl)c(Cl)c1)C(C(=O)NCc1ccccc1)c1ccc(C(F)(F)F)cc1 (stereo unspecified),"inconclusive: 14.6 µM [cytotoxic, partial curve]"

row,Compound,Potency
1,OCCN1CCN(CCSc2ccccc2)CC1,inactive
2,CCOC(=O)C1(C(=O)OCC)CC1c1ccccc1 (stereo unspecified),"inconclusive: 20.6 µM [rising, single point]"
3,CCNc1nc(OCC)nc(N2CCC(Cc3ccccc3)CC2)n1,"inconclusive: 20.6 µM [cytotoxic, single point]"
4,O=C1Nc2c(c(=O)[nH]c(=O)n2-c2ccc(Cl)cc2)C1(NS(=O)(=O)c1ccccc1)C(F)(F)F (stereo unspecified),"inconclusive: 11.6 µM [rising, partial curve]"
5,O=C(c1cc(-c2ccccc2)nc2ccccc12)N1CCCc2ccccc21,"inconclusive: 11.6 µM [cytotoxic, partial curve]"
6,COc1cc2c(cc1OC)-c1cc(Nc3cccc(C)c3)nc(=O)n1CC2,inactive
7,COc1ccc(Cl)cc1NC(=O)C1CCCN(c2cc(C)nc3ncnn23)C1 (stereo unspecified),inactive
8,COC(=O)c1ccc(CNC(=O)CC[C@H]2O[C@@H](n3cc(C)c(=O)[nH]c3=O)C[C@@H]2O)cc1,inactive
9,Cc1nn(Cc2ccccc2Cl)c(C)c1C(=O)NCc1ccco1,inactive
10,COc1cc(OC)cc(C(=O)NC(=S)N(Cc2ccccc2)C(C)C)c1,"inconclusive: 14.6 µM [cytotoxic, partial curve, poor fit]"
11,COc1ccccc1CNC(=O)C1CCN(c2nn3c(=O)cc(C)nc3s2)CC1,inactive
12,COc1cc(OC)c(N(C)S(=O)(=O)c2cccc(C(=O)OCC(=O)NCc3ccco3)c2)cc1Cl,inactive
13,O=S(=O)(c1ccc(Oc2ccc(S(=O)(=O)N(CCO)CCO)cc2)cc1)N(CCO)CCO,inactive
14,CC(C)(C)NC(=O)Cn1c(SCC(=O)N2CCCCCC2)nc2ccccc21,"inconclusive: 10.3 µM [cytotoxic, partial curve, poor fit]"
15,COc1ccc(Cl)cc1-c1nc(N)nc(NC2CCCCC2)n1,active: 18.4 µM
16,Cc1ccc(S(=O)(=O)N2C[C@@H]3CCCC[C@@H]3[C@@H](C)[C@H]2c2cn(Cc3ccccc3)c3ncccc23)cc1,"inconclusive: 14.6 µM [cytotoxic, partial curve]"
17,CCc1ccccc1N1CC23C=CC(O2)C(C(=O)OCC(C)C)C3C1=O (stereo unspecified),"inconclusive: 0.82 µM [rising, full curve, poor fit]"
18,CN(C(=O)c1cccc(Cl)c1)C1CCCN(Cc2ccccc2F)C1 (stereo unspecified),"inconclusive: 2.31 µM [cytotoxic, partial curve, poor fit]"
19,CC1Oc2ccccc2N(Cc2cccnc2)C1=O (stereo unspecified),"inconclusive: 29.1 µM [cytotoxic, single point]"
20,Cc1ccc(S(=O)(=O)N2C[C@]3(O)C[C@@H]4C(=O)N(c5ccccc5)C(=O)[C@@H]4C[C@]3(OC(=O)NCC3CCCCC3)C2)cc1,inactive
21,CC1CCCN(C(=O)C(Cc2ccccc2)n2cccc2)C1 (stereo unspecified),inactive
22,CC(=O)N/C(=C\c1ccccc1)C(=O)OCCCOC(=O)/C(=C/c1ccccc1)NC(C)=O,"inconclusive: 29.1 µM [rising, single point]"
23,CCC1CCCCN1CCCNC(=O)c1cc2c(Cl)nc3ccc(C)cc3c2s1 (stereo unspecified),inactive
24,CCSc1ccc([C@@H]2[C@@H]3C(=O)N(CC)C(=O)[C@@H]3[C@]3(C(=O)OC)CCCCN23)cc1,inactive

row,Compound,Potency
1,O=S(=O)(NC1CCCCC1N1CCCCC1)c1ccc(Cl)cc1 (stereo unspecified),"inconclusive: 32.6 µM [rising, partial curve, poor fit]"
2,CC(=O)c1cccc(NC(=S)NC(=O)c2ccccc2C)c1,inactive
3,CN(C)S(=O)(=O)c1cccc(NC(=O)COC(=O)c2cccn2C)c1,"inconclusive: 23.1 µM [cytotoxic, single point]"
4,CC(=O)c1ccc(NC(=O)CN2C(=O)c3cccnc3Sc3ccccc32)cc1,inactive
5,COC(=O)C1=C(C)n2cnnc2NC1c1ccc(Cl)cc1 (stereo unspecified),"inconclusive: 23.1 µM [rising, single point]"
6,C=C(C)COc1ccc(-c2n[nH]c(C)c2-c2ccc(OC)cc2)c(O)c1,"inconclusive: 29.1 µM [cytotoxic, single point]"
7,COc1ccc(/C=C(\C#N)c2nc(-c3ccc(Cl)c(Cl)c3)cs2)cc1OC,"inconclusive: 8.2 µM [rising, partial curve]"
8,CCc1ccccc1NC(=O)CSc1nc2c(oc3ccccc32)c(=O)n1-c1ccccc1,inactive
9,C=CC[C@@H](CC(=O)NCCO)C(=O)N[C@@H](COC(=O)[C@@H](CC=C)CC(=O)OC(C)(C)C)Cc1ccccc1,inactive
10,CCC(Sc1nc2c(c(=O)[nH]1)CCC2)C(=O)Nc1cccc(OC)c1 (stereo unspecified),active: 16.4 µM
11,COc1ccc(N2CCN(S(=O)(=O)c3cc(-c4cc(C)no4)ccc3C(C)C)CC2)cc1,"inconclusive: 29.1 µM [rising, single point]"
12,COCCOC(=O)C(C#N)c1nc2ccccc2nc1N1CCCC1 (stereo unspecified),"inconclusive: 4.11 µM [cytotoxic, full curve]"
13,Cc1cccc2c(=O)c(C(=O)NCc3ccc(F)cc3)c[nH]c12,"inconclusive: 32.6 µM [cytotoxic, partial curve, poor fit]"
14,Cc1ccc(-c2nc3ccc(Br)cn3c2Nc2ccc3c(c2)OCO3)o1,"inconclusive: 8.2 µM [rising, partial curve, poor fit]"
15,CCc1ccc(C2=NNC(=Nc3c(C)n(C)n(-c4ccccc4)c3=O)SC2)cc1,"inconclusive: 29.1 µM [cytotoxic, single point]"
16,O=C(NCCN1CCc2ccccc2C1)C1CCN(S(=O)(=O)N2CCCCC2)CC1,"inconclusive: 14.6 µM [cytotoxic, single point]"
17,CC(C)NC(=O)N1Cc2cc(C(=O)NC3CCCCC3)nc(-c3cccc(-c4cccnc4)c3)c2[C@@H]1CCO,"inconclusive: 18.4 µM [cytotoxic, single point]"
18,CC(/C=C/c1ccco1)=N\NC(=O)c1cccc(Cl)c1,"inconclusive: 18.4 µM [cytotoxic, single point]"
19,O=C(Nn1cnc2ccccc2c1=O)c1ccccc1,inactive
20,CCn1c2ccccc2c2nc3cc(S(=O)(=O)N4CCOCC4)ccc3nc21,"inconclusive: 10.3 µM [cytotoxic, partial curve]"
21,COc1ccc(NC(=O)CN2CCN(CC(=O)Nc3ccccc3OC)CC2)c(OC)c1,inactive
22,CCN(CC)CCNC(=O)CCCCn1c(=S)[nH]c2c([nH]c3ccc(OC)cc32)c1=O,inactive
23,Nn1c(SC/C=C/c2ccccc2)nnc1-c1ccco1,"inconclusive: 20.6 µM [cytotoxic, partial curve, poor fit]"

# 6 entries picked at random from those above:
row,Compound,Potency
3,CN(C)S(=O)(=O)c1cccc(NC(=O)COC(=O)c2cccn2C)c1,"inconclusive: 23.1 µM [cytotoxic, single point]"
2,CC(=O)c1cccc(NC(=S)NC(=O)c2ccccc2C)c1,inactive
20,CCn1c2ccccc2c2nc3cc(S(=O)(=O)N4CCOCC4)ccc3nc21,"inconclusive: 10.3 µM [cytotoxic, partial curve]"
4,CC(=O)c1ccc(NC(=O)CN2C(=O)c3cccnc3Sc3ccccc32)cc1,inactive
8,CCc1ccccc1NC(=O)CSc1nc2c(oc3ccccc32)c(=O)n1-c1ccccc1,inactive
11,COc1ccc(N2CCN(S(=O)(=O)c3cc(-c4cc(C)no4)ccc3C(C)C)CC2)cc1,"inconclusive: 29.1 µM [rising, single point]"
